Reference: PubChem BioAssay AID1259254 (NCATS, 2017)

Assay: 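Genome-wide screen for genes that prevent DNA re-replication in cancer cells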 (primary screen)
Cell system: human HCT116 colorectal cancer cells
Reagents: single siRNA against human genes
Timing: 3 days
Detection: 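Nuclei stained with Hoechst and imaged; cell-cycle phase assigned by DNA content; G2 share scaled per plate, non-targeting siRNA 0%, GMNN siRNA 100%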
Reading the numbers: G2 robust z-score and G2 cells, % of GMNN control: higher = more G2 cells, more excess DNA replication
Call rule: 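Active siRNAs have a G2 robust z of 5 or more median absolute deviations over the median, which in these data means about 38% or higher of GMNN control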
Shown is an unselected part of about 59,000 reagents tested. About 1,550 of them (2.6%) were called active. 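G2 share is only a proxy for re-replication; each gene was hit by three separate siRNAs, and active genes were retested.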 Entries without a mark were called inactive. Not all columns of the deposit are shown. The record does not give: the amount of reagent.

F2R (coagulation factor II thrombin receptor) [SID160762892] — G2 robust z-score: -0.0686; G2 cells, % of GMNN control: 2.48
F2R (coagulation factor II thrombin receptor) [SID160762903] — G2 robust z-score: -0.549; G2 cells, % of GMNN control: -0.893
F2R (coagulation factor II thrombin receptor) [SID160762913] — G2 robust z-score: 4.68; G2 cells, % of GMNN control: 35.9
IL33R (interleukin 33 receptor) [SID160721646] — G2 robust z-score: -1.08; G2 cells, % of GMNN control: -4.65
IL33R (interleukin 33 receptor) [SID160721647] — G2 robust z-score: -0.276; G2 cells, % of GMNN control: 1.03
IL33R (interleukin 33 receptor) [SID160732143] — G2 robust z-score: 0.879; G2 cells, % of GMNN control: 9.15
CENPS (centromere protein S) [SID160765526] — G2 robust z-score: 1.3; G2 cells, % of GMNN control: 12.1
CENPS (centromere protein S) [SID160765527] — G2 robust z-score: -1.05; G2 cells, % of GMNN control: -4.43
CENPS (centromere protein S) [SID160765528] — G2 robust z-score: -0.292; G2 cells, % of GMNN control: 0.912
VDAC3 (voltage dependent anion channel 3) [SID160718735] — G2 robust z-score: -1.46; G2 cells, % of GMNN control: -7.29
VDAC3 (voltage dependent anion channel 3) [SID160718736] — G2 robust z-score: 1.98; G2 cells, % of GMNN control: 16.9
VDAC3 (voltage dependent anion channel 3) [SID160718737] — G2 robust z-score: 0.503; G2 cells, % of GMNN control: 6.51
ACOX1 (acyl-CoA oxidase 1) [SID160777745] — G2 robust z-score: 0.0123; G2 cells, % of GMNN control: 3.05
ACOX1 (acyl-CoA oxidase 1) [SID160777754] — G2 robust z-score: 2.08; G2 cells, % of GMNN control: 17.6
ACOX1 (acyl-CoA oxidase 1) [SID160777765] — G2 robust z-score: 4.39; G2 cells, % of GMNN control: 33.9
LGR5 (leucine rich repeat containing G protein-coupled receptor 5) [SID160720313] — G2 robust z-score: 4.26; G2 cells, % of GMNN control: 33
LGR5 (leucine rich repeat containing G protein-coupled receptor 5) [SID160720314] — G2 robust z-score: -0.438; G2 cells, % of GMNN control: -0.117
LGR5 (leucine rich repeat containing G protein-coupled receptor 5) [SID160720315] — G2 robust z-score: 3.47; G2 cells, % of GMNN control: 27.4

2 successive records from above, quoted:
CENPS (centromere protein S) [SID160765528] — G2 robust z-score: -0.292; G2 cells, % of GMNN control: 0.912
VDAC3 (voltage dependent anion channel 3) [SID160718735] — G2 robust z-score: -1.46; G2 cells, % of GMNN control: -7.29
